Data published in the supplement of paper PMC10849652.
Some of the results follow.

The chains behind the UniProt entries cited, without tags or fusion partners. Where a name states a change or a piece, a line headed by the entry shows the natural chain unless it says otherwise.
UniProt Q96S38: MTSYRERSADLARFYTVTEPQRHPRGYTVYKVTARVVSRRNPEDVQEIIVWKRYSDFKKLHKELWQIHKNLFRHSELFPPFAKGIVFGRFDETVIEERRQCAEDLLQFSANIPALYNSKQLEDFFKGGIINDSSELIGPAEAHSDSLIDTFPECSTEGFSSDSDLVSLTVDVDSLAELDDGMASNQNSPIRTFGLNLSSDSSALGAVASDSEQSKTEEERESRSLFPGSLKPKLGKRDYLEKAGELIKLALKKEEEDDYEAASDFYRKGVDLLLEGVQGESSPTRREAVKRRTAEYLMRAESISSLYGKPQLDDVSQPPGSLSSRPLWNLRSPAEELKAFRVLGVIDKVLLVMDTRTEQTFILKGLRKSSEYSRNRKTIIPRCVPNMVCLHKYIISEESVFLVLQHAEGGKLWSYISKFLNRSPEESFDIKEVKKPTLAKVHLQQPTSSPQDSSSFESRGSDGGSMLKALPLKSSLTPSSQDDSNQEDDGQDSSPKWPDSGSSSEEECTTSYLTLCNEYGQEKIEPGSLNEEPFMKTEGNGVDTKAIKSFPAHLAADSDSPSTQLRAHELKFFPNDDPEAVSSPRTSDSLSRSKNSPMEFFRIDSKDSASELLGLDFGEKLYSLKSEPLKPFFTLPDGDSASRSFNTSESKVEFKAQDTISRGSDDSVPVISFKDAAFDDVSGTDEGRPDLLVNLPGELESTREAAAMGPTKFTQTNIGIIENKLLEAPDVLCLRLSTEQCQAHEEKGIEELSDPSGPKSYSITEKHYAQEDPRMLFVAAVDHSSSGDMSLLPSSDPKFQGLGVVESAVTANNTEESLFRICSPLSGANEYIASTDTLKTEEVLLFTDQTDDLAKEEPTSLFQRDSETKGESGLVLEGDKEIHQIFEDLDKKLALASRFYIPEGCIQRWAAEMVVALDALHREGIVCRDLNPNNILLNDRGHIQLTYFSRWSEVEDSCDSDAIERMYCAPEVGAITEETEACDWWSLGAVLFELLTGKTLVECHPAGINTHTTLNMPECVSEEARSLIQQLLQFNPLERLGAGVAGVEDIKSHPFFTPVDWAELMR
UniProt P04843: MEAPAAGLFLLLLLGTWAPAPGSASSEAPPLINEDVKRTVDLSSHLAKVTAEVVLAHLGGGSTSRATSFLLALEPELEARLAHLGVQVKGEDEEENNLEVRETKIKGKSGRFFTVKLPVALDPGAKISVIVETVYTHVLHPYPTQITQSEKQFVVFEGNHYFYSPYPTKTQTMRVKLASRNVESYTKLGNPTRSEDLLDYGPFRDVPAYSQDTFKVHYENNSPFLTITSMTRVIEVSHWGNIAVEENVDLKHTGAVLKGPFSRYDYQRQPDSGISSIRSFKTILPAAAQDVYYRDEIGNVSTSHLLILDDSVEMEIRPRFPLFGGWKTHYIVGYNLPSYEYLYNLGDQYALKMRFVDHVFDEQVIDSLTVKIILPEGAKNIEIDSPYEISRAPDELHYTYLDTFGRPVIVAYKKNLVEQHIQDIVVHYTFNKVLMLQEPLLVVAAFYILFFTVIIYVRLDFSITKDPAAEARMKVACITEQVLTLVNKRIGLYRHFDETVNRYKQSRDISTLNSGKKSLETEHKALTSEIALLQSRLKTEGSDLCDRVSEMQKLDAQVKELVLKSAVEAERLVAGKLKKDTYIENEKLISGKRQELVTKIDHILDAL
UniProt Q9BUL9: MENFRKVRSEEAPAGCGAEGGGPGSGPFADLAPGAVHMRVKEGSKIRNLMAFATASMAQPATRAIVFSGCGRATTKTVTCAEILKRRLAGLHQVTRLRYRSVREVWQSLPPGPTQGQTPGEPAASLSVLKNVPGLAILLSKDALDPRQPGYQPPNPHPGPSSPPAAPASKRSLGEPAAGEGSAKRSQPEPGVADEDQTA
UniProt Q96AT9: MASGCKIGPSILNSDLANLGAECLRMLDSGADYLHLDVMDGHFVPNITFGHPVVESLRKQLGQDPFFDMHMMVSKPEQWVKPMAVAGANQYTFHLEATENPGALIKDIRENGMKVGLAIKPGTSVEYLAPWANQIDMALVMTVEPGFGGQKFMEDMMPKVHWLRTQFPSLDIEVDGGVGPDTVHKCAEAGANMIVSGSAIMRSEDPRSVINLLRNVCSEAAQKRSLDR
UniProt Q8TA86: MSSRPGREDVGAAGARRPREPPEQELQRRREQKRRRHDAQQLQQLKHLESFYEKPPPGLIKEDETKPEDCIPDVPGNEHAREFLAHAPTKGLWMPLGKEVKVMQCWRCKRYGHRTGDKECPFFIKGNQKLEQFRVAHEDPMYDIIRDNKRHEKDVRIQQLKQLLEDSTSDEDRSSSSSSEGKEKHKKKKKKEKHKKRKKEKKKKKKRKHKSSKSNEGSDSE
UniProt Q92766: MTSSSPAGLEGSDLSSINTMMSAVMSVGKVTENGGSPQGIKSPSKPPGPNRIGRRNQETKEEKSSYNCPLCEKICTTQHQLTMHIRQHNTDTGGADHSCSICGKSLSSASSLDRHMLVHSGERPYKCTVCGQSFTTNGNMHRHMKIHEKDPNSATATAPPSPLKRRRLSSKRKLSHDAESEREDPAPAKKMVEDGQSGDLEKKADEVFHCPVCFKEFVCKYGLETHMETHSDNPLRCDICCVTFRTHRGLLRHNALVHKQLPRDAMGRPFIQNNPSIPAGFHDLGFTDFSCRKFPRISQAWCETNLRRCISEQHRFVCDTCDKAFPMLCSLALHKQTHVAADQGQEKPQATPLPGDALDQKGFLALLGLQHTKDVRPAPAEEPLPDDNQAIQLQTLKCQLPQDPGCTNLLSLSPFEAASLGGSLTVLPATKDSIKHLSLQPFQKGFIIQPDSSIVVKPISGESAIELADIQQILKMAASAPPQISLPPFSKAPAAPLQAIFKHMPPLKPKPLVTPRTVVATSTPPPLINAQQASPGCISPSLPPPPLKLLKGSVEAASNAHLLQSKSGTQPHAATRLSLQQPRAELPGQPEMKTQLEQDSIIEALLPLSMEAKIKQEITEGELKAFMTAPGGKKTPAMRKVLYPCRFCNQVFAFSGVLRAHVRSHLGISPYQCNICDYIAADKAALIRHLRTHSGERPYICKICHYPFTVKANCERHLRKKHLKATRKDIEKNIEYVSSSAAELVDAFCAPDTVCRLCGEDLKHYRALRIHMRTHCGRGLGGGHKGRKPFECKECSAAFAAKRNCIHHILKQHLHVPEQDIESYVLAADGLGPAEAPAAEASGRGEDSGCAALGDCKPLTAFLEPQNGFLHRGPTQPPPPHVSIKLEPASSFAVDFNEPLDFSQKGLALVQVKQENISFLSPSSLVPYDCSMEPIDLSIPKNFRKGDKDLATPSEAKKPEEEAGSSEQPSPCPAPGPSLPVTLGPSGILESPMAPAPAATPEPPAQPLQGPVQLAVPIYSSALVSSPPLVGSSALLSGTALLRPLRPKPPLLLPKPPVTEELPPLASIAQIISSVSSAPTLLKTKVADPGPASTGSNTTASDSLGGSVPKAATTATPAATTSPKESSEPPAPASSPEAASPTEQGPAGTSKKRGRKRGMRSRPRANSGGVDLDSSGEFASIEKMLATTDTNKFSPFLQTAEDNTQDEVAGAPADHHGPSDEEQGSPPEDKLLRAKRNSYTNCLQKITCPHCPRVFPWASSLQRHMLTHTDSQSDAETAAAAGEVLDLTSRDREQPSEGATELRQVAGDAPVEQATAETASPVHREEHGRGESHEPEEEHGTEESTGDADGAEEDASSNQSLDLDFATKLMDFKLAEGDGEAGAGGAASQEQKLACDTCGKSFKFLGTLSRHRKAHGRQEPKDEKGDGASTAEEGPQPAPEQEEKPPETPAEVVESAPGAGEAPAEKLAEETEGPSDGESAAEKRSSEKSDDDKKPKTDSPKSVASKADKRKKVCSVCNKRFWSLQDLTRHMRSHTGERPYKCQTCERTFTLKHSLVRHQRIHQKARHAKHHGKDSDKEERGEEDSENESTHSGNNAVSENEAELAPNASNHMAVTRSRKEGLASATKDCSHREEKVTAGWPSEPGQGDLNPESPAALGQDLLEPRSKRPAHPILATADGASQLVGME
UniProt P13489: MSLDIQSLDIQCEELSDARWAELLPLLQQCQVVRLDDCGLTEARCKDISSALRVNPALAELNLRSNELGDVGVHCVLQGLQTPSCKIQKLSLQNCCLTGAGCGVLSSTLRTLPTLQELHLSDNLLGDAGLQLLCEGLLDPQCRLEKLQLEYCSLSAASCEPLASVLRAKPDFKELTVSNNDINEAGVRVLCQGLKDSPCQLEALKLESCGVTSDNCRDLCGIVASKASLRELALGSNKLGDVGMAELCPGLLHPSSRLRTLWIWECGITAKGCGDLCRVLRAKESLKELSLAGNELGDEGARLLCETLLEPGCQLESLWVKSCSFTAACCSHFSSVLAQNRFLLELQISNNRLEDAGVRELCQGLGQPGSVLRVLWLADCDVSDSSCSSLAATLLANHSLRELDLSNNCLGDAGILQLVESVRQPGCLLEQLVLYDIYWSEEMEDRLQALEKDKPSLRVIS
UniProt P23443: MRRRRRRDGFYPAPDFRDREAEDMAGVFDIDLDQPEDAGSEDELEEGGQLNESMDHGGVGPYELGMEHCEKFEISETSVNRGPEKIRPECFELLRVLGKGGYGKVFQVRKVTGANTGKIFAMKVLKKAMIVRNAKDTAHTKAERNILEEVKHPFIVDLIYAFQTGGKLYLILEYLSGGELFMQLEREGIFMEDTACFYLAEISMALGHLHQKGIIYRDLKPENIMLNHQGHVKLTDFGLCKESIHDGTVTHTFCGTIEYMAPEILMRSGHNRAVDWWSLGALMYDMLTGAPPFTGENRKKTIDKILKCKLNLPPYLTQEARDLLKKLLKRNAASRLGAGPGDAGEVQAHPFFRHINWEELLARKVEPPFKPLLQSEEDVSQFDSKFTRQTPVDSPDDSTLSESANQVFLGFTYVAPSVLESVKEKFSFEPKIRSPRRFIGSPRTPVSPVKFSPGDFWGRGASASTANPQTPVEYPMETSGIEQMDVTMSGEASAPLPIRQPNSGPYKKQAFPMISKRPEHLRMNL
UniProt P05386, whole entry, looked up: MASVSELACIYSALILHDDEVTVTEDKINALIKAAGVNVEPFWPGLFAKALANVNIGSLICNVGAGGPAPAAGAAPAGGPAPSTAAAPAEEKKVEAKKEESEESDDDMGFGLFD
UniProt O43148, whole entry, looked up: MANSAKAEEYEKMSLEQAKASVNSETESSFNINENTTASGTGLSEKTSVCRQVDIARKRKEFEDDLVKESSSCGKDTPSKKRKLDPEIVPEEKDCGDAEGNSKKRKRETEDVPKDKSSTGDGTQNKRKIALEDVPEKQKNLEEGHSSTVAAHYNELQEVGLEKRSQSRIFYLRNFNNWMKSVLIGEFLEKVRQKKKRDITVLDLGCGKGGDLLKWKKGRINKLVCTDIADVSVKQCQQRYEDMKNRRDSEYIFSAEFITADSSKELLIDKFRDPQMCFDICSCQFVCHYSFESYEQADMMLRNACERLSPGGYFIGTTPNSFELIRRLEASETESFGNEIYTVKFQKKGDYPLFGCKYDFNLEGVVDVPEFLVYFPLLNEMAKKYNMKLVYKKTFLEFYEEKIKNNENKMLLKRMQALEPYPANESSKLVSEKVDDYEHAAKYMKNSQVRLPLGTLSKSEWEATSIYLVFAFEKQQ

compound: c1cn2cc(-c3ccc4cn[nH]c4c3)nc(Nc3ccc(N4CCOCC4)cc3)c2n1 [entospletinib]; assay: log2 fold change, soluble protein after heating vs DMSO (PISA); higher = thermal stabilisation; K562 cells, 10 uM, 30 min; active = over 0.2 and 3.5 SD of the protein, either way, in both replicates (recomputed)
How it was run: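 Quantification of soluble protein used TMTpro 16plex LC-MS/MS, with channel sums equalised. Samples were the supernatant after 21,000xg for 90 min of pooled aliquots from K562 cells (2×10^6 cells/mL) treated with 10 μM compound for 30 min, heated for 3 min over 48°C-58°C, and extracted in PBS with 0.5% NP-40 at 4°C. Values, from duplicates, describe thermal stability against control samples on a log2 fold-change scale.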

log2 fold change, inactive:
RPL13 (UniProt P26373) 0.138
RPL29 (UniProt P47914) 0.128
RPS6KC1 (UniProt Q96S38) 0.208
RPL24 (UniProt P83731) 0.077
RPL32 (UniProt P62910) 0.107
RPN1 (UniProt P04843) -0.018
RPL7 (UniProt P18124) 0.132
RPL34 (UniProt P49207) 0.097
RPP25 (UniProt Q9BUL9) 0.159
RPE (UniProt Q96AT9) 0.022
RPS24 isoform 4 (UniProt P62847) 0.057
RPS28 (UniProt P62857) 0.1
RP9 (UniProt Q8TA86) 0.062
RREB1 isoform 2 (UniProt Q92766) 0.14
RPL28 (UniProt P46779) 0.128
RPL11 (UniProt P62913) 0.051
RPL23A (UniProt P62750) 0.042
RNH1 (UniProt P13489) -0.005
RPL39P5 (UniProt Q59GN2) 0.134
RPL10 (UniProt P27635) 0.073
RPS6KB1 (UniProt P23443) -0.04
RPL19 (UniProt P84098) 0.173
RPS27 (UniProt P42677) 0.102
RPLP1 (UniProt P05386) 0.172
RPL18A (UniProt Q02543) 0.111
RPL26 (UniProt P61254) 0.021
RPL8 (UniProt P62917) 0.08
RPS15A (UniProt P62244) 0.034
RPL36A (UniProt P83881) 0.015
RNMT isoform 2 (UniProt O43148) 0.017
RPS26 (UniProt P62854) 0.155
RPL4 (UniProt P36578) 0.109
RPL6 (UniProt Q02878) 0.09
RPS7, A0A2R8Y623 -0.211

Pulled one by one from the list above:
log2 fold change, inactive:
RPS27 (UniProt P42677) 0.102
RREB1 isoform 2 (UniProt Q92766) 0.14
